Data reported in patent US10745393B2, “Small molecular probes, processes and use thereof” (JAWAHARLAL NEHRU CENTRE FOR ADVANCED SCIENTIFIC RESEARCH, priority 2014, dated 2020).
For at least one compound, name, drawing or mass did not settle the structure.

Tests used:
(D2)mix = experiment: Agarose gel electrophoresis staining of dsDNA band; assay type: binding; conditions: 3% agarose gel, about 0.6 μg dsDNA, UV-illumination
DNA = conditions: cited from earlier work
(D1)mix = experiment: Agarose gel electrophoresis staining of dsDNA band; assay type: binding; conditions: 3% agarose gel, about 0.6 μg dsDNA, UV-illumination
(AT)20 [1] = experiment: Fluorescence response / quantum yield of probes with dsDNA (AT)20; assay type: binding; conditions: dye 10 μM, Tris-HCl buffer
(AT)20 [2] = experiment: Agarose gel electrophoresis staining of dsDNA band; assay type: binding; conditions: 3% agarose gel, about 0.6 μg dsDNA, UV-illumination

CC[n+]1c(-c2ccccc2)c2cc(N)ccc2c2ccc(N)cc21 [Ethidium bromide, reference compound]
gel staining of (D2)mix band ((D2)mix): stain bands | Fluorescence maxima DNA bound dye (DNA): 624/602 nm | Fluorescence maxima free dye (DNA): 624/602 nm | gel staining of (D1)mix band ((D1)mix): stain bands | comparative fluorescence response in presence of (AT)20 ((AT)20 [1]): do not show appreciable fluorescence changes | gel staining of (AT)20 band ((AT)20 [2]): very weak
